In PMC6626044, “Molecular basis of egg coat cross-linking sheds light on ZP1-associated female infertility” (Nature Communications, 2019):

Biological target: chicken ZP4 ZP-N1 domain, 6His-tagged (chicken)
Assay: pull-down; conditioned medium of cells co-expressing the 6His- and Myc-tagged forms, Ni-NTA beads, 20 mM Na-HEPES pH 7.8, 100 mM NaCl, 10 mM imidazole, 1 h at RT; PNGase F, immunoblot with anti-5His and anti-Myc

- binding: binds
Substance: chicken ZP4 ZP-N1 domain, Myc-tagged (from UniProt A0A8V0ZLW5) (domain or fragment)

These are yes or no findings as the source states them, for the method shown. In cells and extracts the contact can be indirect. Binding calls can cover weak binding; strength is not graded here.
